From patent publication US11466070B2, “Signalling system” (AUTOLUS LIMITED, priority 2016, dated 2022)
At least one structure is not confirmed: it was looked up by name or label, or the drawing left a doubt.

Protein sequences, listed by entry. Tags and fused reporters are not part of them. Lines headed by an entry give the natural chain unless they say otherwise; changes in a name come on top.
UniProt P04483: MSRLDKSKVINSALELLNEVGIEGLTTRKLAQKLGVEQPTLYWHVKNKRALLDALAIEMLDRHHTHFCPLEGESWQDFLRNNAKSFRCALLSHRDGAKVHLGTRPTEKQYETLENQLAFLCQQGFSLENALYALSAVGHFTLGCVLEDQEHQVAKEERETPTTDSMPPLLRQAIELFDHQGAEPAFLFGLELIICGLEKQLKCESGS

Target: T1, TetR (Escherichia coli, UniProt P04483)
T1 construct: expressed in transfected cells; host or cells: SupT1 cells
Assay: Fluorescent microscopy of TiP-eGFP localisation in SupT1 cells expressing a CAR with TetR endodomain
Type: cell-based
Settings: SupT1 cells expressing TiP-eGFP and CAR with TetR endodomain, in the presence of tetracycline

## CN(C)[C@@H]1C(O)=C(C(N)=O)C(=O)[C@@]2(O)C(O)=C3C(=O)c4c(O)cccc4[C@@](C)(O)[C@H]3C[C@@H]12 [tetracycline]
  displacement of TiP (eGFP cytoplasmic instead of at the cell membrane): displaced TiP from the TetR CAR
